# The supplement of paper PMC4604168 (melanoma cell lines)
# This is one part of the list. Repeats are few or missing, and single values can be far off.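 The apoptosis fraction was the count of cleaved-PARP antibody-stained nuclei relative to all DNA-stained nuclei, imaged in 1,536-well plates. Screening doses were set so most cells survived, and baseline and induced cleaved-PARP levels vary greatly across cell lines.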
# Assays:
# Assay in all cases: cleaved PARP positive nuclei fraction relative to DMSO control; melanoma cells; higher = more apoptosis
# Details in all cases: library dose: low library concentration; 72 h
# 501Mel = test system: 501Mel
# A101D = test system: A101D
# A2058 = test system: A2058
# C32 = test system: C32
# CBRC008 = test system: CBRC008 (line from a melanoma biopsy)
# CBRC014 = test system: CBRC014 (line from a melanoma biopsy)
# CBRC016 = test system: CBRC016 (line from a melanoma biopsy)
# CBRC017 = test system: CBRC017 (line from a melanoma biopsy)
# COLO792 = test system: COLO792
# COLO800 = test system: COLO800
# COLO829 = test system: COLO829
# G361 = test system: G361
# IPC-298 = test system: IPC-298
# IST-MEL1 = test system: IST-MEL1
# LB2518-MEL = test system: LB2518-MEL
# LOXIMVI = test system: LOXIMVI
Compound,cleaved PARP positive nuclei fraction (501Mel) [%],cleaved PARP positive nuclei fraction (A101D) [%],cleaved PARP positive nuclei fraction (A2058) [%],cleaved PARP positive nuclei fraction (C32) [%],cleaved PARP positive nuclei fraction (CBRC008) [%],cleaved PARP positive nuclei fraction (CBRC014) [%],cleaved PARP positive nuclei fraction (CBRC016) [%],cleaved PARP positive nuclei fraction (CBRC017) [%],cleaved PARP positive nuclei fraction (COLO792) [%],cleaved PARP positive nuclei fraction (COLO800) [%],cleaved PARP positive nuclei fraction (COLO829) [%],cleaved PARP positive nuclei fraction (G361) [%],cleaved PARP positive nuclei fraction (IPC-298) [%],cleaved PARP positive nuclei fraction (IST-MEL1) [%],cleaved PARP positive nuclei fraction (LB2518-MEL) [%],cleaved PARP positive nuclei fraction (LOXIMVI) [%]
"NC1(c2ccc(-c3nc4ccn5c(=O)[nH]nc5c4cc3-c3ccccc3)cc2)CCC1 + c1cc(-c2cnn3cc(-c4ccc(OCCN5CCCCC5)cc4)cnc23)ccn1 [Dorsomorphin] (first compound 0.4 µM, partner dose 0.4 µM)",287,23,57.6,60.8,143,91.5,25.5,99.9,194,50.6,55.1,97.5,49.1,77.6,83,219
"Cn1cnc2c(F)c(Nc3ccc(Br)cc3Cl)c(C(=O)NOCCO)cc21 [selumetinib] + O=c1cc(-c2cccc3c2Sc2ccccc2S3)oc(N2CCOCC2)c1 [KU55933] (first compound 0.015 µM, partner dose 1 µM)",297,14.7,69.2,31.3,86.3,156,76,141,208,96.2,149,46.2,200,99.8,46.3,158
"COc1ccc(C2=N[C@@H](c3ccc(Cl)cc3)[C@@H](c3ccc(Cl)cc3)N2C(=O)N2CCNC(=O)C2)c(OC(C)C)c1 [Nutlin-3] + O=C(Nc1ccccc1)c1cc([N+](=O)[O-])ccc1Cl [GW9662] (first compound 0.1 µM, partner dose 2 µM)",70.9,60.4,97.7,123,73,110,99.9,92,73.8,97.4,98.7,312,89.9,135,152,36.1
"Cn1sc(=O)n(Cc2ccccc2)c1=O + COc1cc2ncnc(Nc3ccc(Oc4ccccc4)cc3)c2cc1OC [SrcI1] (first compound 0.4 µM, partner dose 2 µM)",238,28.6,63.5,39.7,107,107,46.1,108,75.6,85.4,20.6,145,104,66.4,135,110
"NC1(c2ccc(-c3nc4ccn5c(=O)[nH]nc5c4cc3-c3ccccc3)cc2)CCC1 + COc1ccc(COc2ccc(Cc3cnc(N)nc3N)cc2OC)cc1 [GW2580] (first compound 0.4 µM, partner dose 1 µM)",84.3,48.1,108,92.1,138,81.9,68.9,86.3,71.3,70.1,76.8,182,97.1,210,85.5,80.4
"COc1ccc(C2=N[C@@H](c3ccc(Cl)cc3)[C@@H](c3ccc(Cl)cc3)N2C(=O)N2CCNC(=O)C2)c(OC(C)C)c1 [Nutlin-3] + Oc1cc(-c2nc(-c3ccccc3)[nH]c2-c2ccncc2)ccc1Cl [L779450] (first compound 0.1 µM, partner dose 0.2 µM)",104,14.7,106,44.1,45,101,102,155,88.6,82.1,83.4,139,121,215,180,62.8
"C[C@]1(O)C[C@@H](c2nc(-c3ccc4ccc(-c5ccccc5)nc4c3)c3c(N)nccn32)C1 + c1cc(-c2cnn3cc(-c4ccc(OCCN5CCCCC5)cc4)cnc23)ccn1 [Dorsomorphin] (first compound 0.4 µM, partner dose 0.4 µM)",43.2,18.7,203,27.6,39.4,104,46.9,102,57.2,33,61.1,74.2,147,122,403,287
"COc1ccc(C2=N[C@@H](c3ccc(Cl)cc3)[C@@H](c3ccc(Cl)cc3)N2C(=O)N2CCNC(=O)C2)c(OC(C)C)c1 [Nutlin-3] + COc1cc(N2CCC(N3CCN(C)CC3)CC2)ccc1Nc1ncc(Cl)c(Nc2ccccc2S(=O)(=O)C(C)C)n1 [NVP-TAE684] (first compound 0.1 µM, partner dose 0.08 µM)",74.1,23,82.5,82.7,154,102,54.4,75.5,65.5,142,234,48.5,97.5,88.2,69.5,77.5
"CS(=O)(=O)c1ccc(C(=O)Nc2ccc(Cl)c(-c3ccccn3)c2)c(Cl)c1 [vismodegib] + O=c1cc(-c2cccc3c2Sc2ccccc2S3)oc(N2CCOCC2)c1 [KU55933] (first compound 1 µM, partner dose 1 µM)",66.1,28.5,35.7,38.6,65.9,98.8,37.9,86.7,98.6,114,35.9,93.4,47.3,37.9,67.3,61.4
"CC1(C)CCC(c2ccc(Cl)cc2)=C(CN2CCN(c3ccc(C(=O)NS(=O)(=O)c4ccc(N[C@H](CCN5CCOCC5)CSc5ccccc5)c(S(=O)(=O)C(F)(F)F)c4)cc3)CC2)C1 + Cn1cc(/C=C2\C(=O)Nc3cccnc32)c2ccccc21 [GW441756] (first compound 0.4 µM, partner dose 0.4 µM)",78,28.9,68.5,220,683,287,301,160,315,63.5,49.8,168,203,98.1,169,151
"Cn1cnc2c(F)c(Nc3ccc(Br)cc3Cl)c(C(=O)NOCCO)cc21 [selumetinib] + O=C(Nc1ccccc1)c1cc([N+](=O)[O-])ccc1Cl [GW9662] (first compound 0.015 µM, partner dose 2 µM)",281,34,179,20.6,121,97.6,51.1,129,102,97.6,87.4,147,138,129,254,148
"CN(c1ncccc1CNc1nc(Nc2ccc3c(c2)CC(=O)N3)ncc1C(F)(F)F)S(C)(=O)=O + COc1cc2ncnc(Nc3ccc(Oc4ccccc4)cc3)c2cc1OC [SrcI1] (first compound 0.08 µM, partner dose 2 µM)",63.9,10.9,149,58.1,65.6,89.9,57.9,288,105,13.9,296,89.2,106,46.7,66,22.8
"CS(=O)(=O)c1ccc(C(=O)Nc2ccc(Cl)c(-c3ccccn3)c2)c(Cl)c1 [vismodegib] + O=C(Nc1ccccc1)c1cc([N+](=O)[O-])ccc1Cl [GW9662] (first compound 1 µM, partner dose 2 µM)",54.4,34.2,45.9,145,42.6,95.8,64.9,83.8,31.2,126,131,98.1,59.7,28.5,65.3,170
"CS(=O)(=O)c1ccc(C(=O)Nc2ccc(Cl)c(-c3ccccn3)c2)c(Cl)c1 [vismodegib] + CCc1ccc(CCOc2ccc(CC3SC(=O)NC3=O)cc2)nc1 [pioglitazone] (first compound 1 µM, partner dose 2 µM)",122,9.62,100,75.2,393,126,80.9,98.1,45.4,204,59.2,113,147,34.5,81.8,88
"NC(=O)c1ccc(N(C(N)=O)c2c(F)cccc2F)nc1-c1ccc(F)cc1F + O=S(=O)(c1ccccc1)N(CC(F)(F)F)c1ccc(C(O)(C(F)(F)F)C(F)(F)F)cc1 [T0901317] (first compound 0.4 µM, partner dose 1.4 µM)",77.1,26.7,98.3,79.7,94.5,116,55.9,110,166,78,57.6,94.5,101,89.8,88.2,115

# Reformatted tab-delimited: entries from further up
Compound	cleaved PARP positive nuclei fraction (501Mel) [%]	cleaved PARP positive nuclei fraction (A101D) [%]	cleaved PARP positive nuclei fraction (A2058) [%]	cleaved PARP positive nuclei fraction (C32) [%]	cleaved PARP positive nuclei fraction (CBRC008) [%]	cleaved PARP positive nuclei fraction (CBRC014) [%]	cleaved PARP positive nuclei fraction (CBRC016) [%]	cleaved PARP positive nuclei fraction (CBRC017) [%]	cleaved PARP positive nuclei fraction (COLO792) [%]	cleaved PARP positive nuclei fraction (COLO800) [%]	cleaved PARP positive nuclei fraction (COLO829) [%]	cleaved PARP positive nuclei fraction (G361) [%]	cleaved PARP positive nuclei fraction (IPC-298) [%]	cleaved PARP positive nuclei fraction (IST-MEL1) [%]	cleaved PARP positive nuclei fraction (LB2518-MEL) [%]	cleaved PARP positive nuclei fraction (LOXIMVI) [%]
C[C@]1(O)C[C@@H](c2nc(-c3ccc4ccc(-c5ccccc5)nc4c3)c3c(N)nccn32)C1 + c1cc(-c2cnn3cc(-c4ccc(OCCN5CCCCC5)cc4)cnc23)ccn1 [Dorsomorphin] (first compound 0.4 µM, partner dose 0.4 µM)	43.2	18.7	203	27.6	39.4	104	46.9	102	57.2	33	61.1	74.2	147	122	403	287
COc1ccc(C2=N[C@@H](c3ccc(Cl)cc3)[C@@H](c3ccc(Cl)cc3)N2C(=O)N2CCNC(=O)C2)c(OC(C)C)c1 [Nutlin-3] + COc1cc(N2CCC(N3CCN(C)CC3)CC2)ccc1Nc1ncc(Cl)c(Nc2ccccc2S(=O)(=O)C(C)C)n1 [NVP-TAE684] (first compound 0.1 µM, partner dose 0.08 µM)	74.1	23	82.5	82.7	154	102	54.4	75.5	65.5	142	234	48.5	97.5	88.2	69.5	77.5
CS(=O)(=O)c1ccc(C(=O)Nc2ccc(Cl)c(-c3ccccn3)c2)c(Cl)c1 [vismodegib] + O=c1cc(-c2cccc3c2Sc2ccccc2S3)oc(N2CCOCC2)c1 [KU55933] (first compound 1 µM, partner dose 1 µM)	66.1	28.5	35.7	38.6	65.9	98.8	37.9	86.7	98.6	114	35.9	93.4	47.3	37.9	67.3	61.4
